The source of these data is paper PMC12370185.

The list shows a part of the results.

Test systems include KLF4 + histone octamer; OCT4 + histone octamer; SOX2 + histone octamer.
Experiment in all cases: EMSA with sequencing
Common to all, as to settings: 10 mM Tris-Cl pH 7.5, 50 mM NaCl, 1 mM DTT, 0.25 mg/ml BSA, 2 mM MgCl2, 0.025% Nonidet P-40, 5% glycerol; 28 nM nucleosome library; 10 min on ice then 30 min …; high values mean tight binding; double strand, one strand shown
(In general: Mobility shift assays separate free from complexed probe on a gel.)

The test system of test [1] is c-MYC + MAX + histone octamer.

For the sequence “GATGGACCCTATACGCGGCTGTAAGATTTAAAAGCTTCCCAGGTGATTCTAATGTATAGCCAGGCTTAAGAACCTGCCCCACTCACCAATACAGAGCAGTTGTTCTCAAACTTTAATGAATGTAGGCATCACCTGCATATGAATGCAGACACCCACAGAGGTTATTATTCAGCAGGTCAAAGGTGGGCTAGAAAACTCCTTTTTAAATGATGCCAGTCGGATAGTGTTCC”, the binding signal (log2 relative supershift) is 2.06 in the test on KLF4 + histone octamer, 0.0954 in the test on OCT4 + histone octamer, 1.34 in the test on SOX2 + histone octamer and 0.0603 in test [1].
For “GATGGACCCTATACGCGGCCATTTGCAGAGAGTGGCATTTCTAAGGTACTCTTAGATTTCCTCCCCGTGTCTCAGTGTCCTCCAGGAGTGTGCAGGGAACAGCCTGTGGTTATGCGCATTTGTGCTGGGAAGAGATGTAACTATCCATGTGCAGGACATTTGGGAGGGGTGGGAGTGTGTGGGTACGTGGCCCTGTGCAGGTTGAGTGTGTGCCAGTCGGATAGTGTTCC”, the binding signal (log2 relative supershift) in the test with KLF4 + histone octamer was found to be 1.82; in the test with OCT4 + histone octamer it was 0.139; in the test with SOX2 + histone octamer, 0.616; in test [1] it was 0.621.
In the case of “GATGGACCCTATACGCGGCCTTATTCCAGCTGTCATTATTTTAGAGGACTACACATTAACATCTCAGTGATCTAGAACAAATGGAGCAATGTGAGAAACTGTGCTGTATCTTGATCAGTAGTTACCCAACCCAGTGAGTCTGAAAACAACAGATTGCTATCCCTCCCACGTGAGATTCTGATGCAATTGGTCTGTGACAGAGACCAGGAATGCCAGTCGGATAGTGTTCC”, the binding signal (log2 relative supershift) in the test on KLF4 + histone octamer worked out at 1.12; in the test with OCT4 + histone octamer, 0.373; with SOX2 + histone octamer it was 0.563; in test [1] it was 0.225.
“GATGGACCCTATACGCGGCTAGCTGTGTTATTCCTTAACTGCATGAACATTGGCTGGACAAAGAACCTAAGTTTCTGCCTCTGTAAAATGGGCATAATAAAGTGTCACCCTCCCTGATGGTTCATGTGGATGAATGAGCGCACACGTTGTGACTATGTGAGTTGCAGAGCACTACATCCTTATGGAGAAAAGATCATAAAGCCTTATCAGTGCCAGTCGGATAGTGTTCC”: the binding signal (log2 relative supershift) with KLF4 + histone octamer amounted to 0.203; with OCT4 + histone octamer, 0.0687; in the test with SOX2 + histone octamer, 1.25; in test [1], 0.0619.
